The test system of the assay is L1210 leukemia ip in BDF1 mice, survival T/C. In words: NCI In Vivo Anticancer Drug Screen. Data for tumor model L1210 Leukemia (intraperitoneal) in B6D2F1 (BDF1) mice. Particulars: T/C endpoint: mean survival time, higher T/C = longer survival.
[1] abbreviates: dose: 100.0 mg/kg/injection, schedule: Q04DX003 (ip), vehicle: saline.
[2] abbreviates: dose: 150.0 mg/kg/injection, schedule: Q01DX001 (ip), vehicle: saline.
The mark [3] stands for this setting: dose: 300.0 mg/kg/injection, schedule: Q01DX001 (ip), vehicle: saline.
Where [4] appears, read: dose: 25.0 mg/kg/injection, schedule: Q01DX001 (ip), vehicle: saline.

In PubChem BioAssay AID248 (DTP/NCI, 2004) one finds T/C and survivor count data, which are given here for ten compounds.

The list is a part of this screen's results and no random one: it gathers some chemical classes. Other doses and runs of a compound may be missing. T/C is the treated group as % of the vehicle group. Some doses have a count of surviving animals in place of a T/C: the source holds a T/C of zero for them, seemingly a mark for toxic or unscored doses. Some survivor counts are full or nearly so, which does not show that the dose was tolerated: the source hardly ever lists a survival T/C far under the control, and the zero likely stands for such cases as well. Survivors were counted at the toxicity check, usually on the fifth day, unless a day is given; later deaths do not show. Schedules are NCI's codes, taken here to give the interval after Q, in days (D) or hours (H), and the number of doses after X. Some entries hold several experiments; the values are given in rising order. For survival time, this PubChem deposit counts one and a half times the control or more as active, and values a quarter to a half above the control carry no call in these data; other NCI protocols may use other cut-offs. Some entries show no survivor count and are marked so; the dose need not have been tolerated. Some T/C values are followed by the survivors on the day toxicity was checked, most often the fifth; where neither a count nor a note follows, no animal had died by that day.

For `CCN(CCCl)Cc1cccc2ccccc12`, the T/C is, setting by setting: (dose: 25.0 mg/kg/injection, schedule: Q04DX003 (ip), vehicle: saline) 95 % of control; (dose: 50.0 mg/kg/injection, schedule: Q04DX003 (ip), vehicle: saline) 89 % of control; under setting [1], 122 % of control [2 of 3 alive]. Further, the survivor count is, setting by setting: under setting [1], 0 of 3; (dose: 200.0 mg/kg/injection, schedule: Q04DX003 (ip), vehicle: saline) 0 of 3; (dose: 400.0 mg/kg/injection, schedule: Q04DX003 (ip), vehicle: saline) 0 of 3.

Regarding `CC1=C2C(=CC(C)(C)C2O)C(O)C(C)(O)C12CC2` (stereo not drawn), the T/C (dose: 50.0 mg/kg/injection, schedule: Q01DX009 (ip), vehicle: other) was 103 % of control; the T/C (dose: 50.0 mg/kg/injection, schedule: Q04DX003 (ip), vehicle: saline with Tween-80) is 105 % of control; the T/C (dose: 100.0 mg/kg/injection, schedule: Q01DX009 (ip), vehicle: other) was 103 % of control; the T/C (dose: 100.0 mg/kg/injection, schedule: Q04DX003 (ip), vehicle: saline with Tween-80) is 102 % of control; the T/C (dose: 200.0 mg/kg/injection, schedule: Q01DX009 (ip), vehicle: other) was 132 % of control; the T/C (dose: 200.0 mg/kg/injection, schedule: Q04DX003 (ip), vehicle: saline with Tween-80) is 105 % of control. The T/C (dose: 400.0 mg/kg/injection, schedule: Q04DX003 (ip), vehicle: saline with Tween-80) is 104 % of control. Besides, where the note is “dose: 400.0 mg/kg/injection, schedule: Q01DX009 (ip), vehicle: other”, the survivor count is 6 of 6.

Regarding `ClCCNc1nc2ccc(Cl)cc2c2ccccc12`, the T/C reads like this: (dose: 1.8 mg/kg/injection, schedule: Q01DX009 (ip), vehicle: Klucel (hydroxypropylcellulose) (HPC)) 93 % of control [5 of 6 alive]; (dose: 3.7 mg/kg/injection, schedule: Q01DX009 (ip), vehicle: Klucel (hydroxypropylcellulose) (HPC)) 96 % of control; (dose: 3.7 mg/kg/injection, schedule: Q04DX003 (ip), vehicle: Klucel (hydroxypropylcellulose) (HPC)) 102 % of control; (dose: 7.5 mg/kg/injection, schedule: Q01DX009 (ip), vehicle: Klucel (hydroxypropylcellulose) (HPC)) 107 % of control; (dose: 7.5 mg/kg/injection, schedule: Q04DX003 (ip), vehicle: Klucel (hydroxypropylcellulose) (HPC)) 102 % of control; (dose: 15.0 mg/kg/injection, schedule: Q01DX009 (ip), vehicle: Klucel (hydroxypropylcellulose) (HPC)) 109 % of control. For the same compound, the T/C (dose: 15.0 mg/kg/injection, schedule: Q04DX003 (ip), vehicle: Klucel (hydroxypropylcellulose) (HPC)) was 102 % of control. For the same compound, the survivor count runs as follows: (dose: 75.0 mg/kg/injection, schedule: Q01DX001 (ip), vehicle: carboxymethylcellulose (CMC)) 0 of 6; (dose: 150.0 mg/kg/injection, schedule: Q01DX001 (ip), vehicle: carboxymethylcellulose (CMC)) 0 of 6; (dose: 300.0 mg/kg/injection, schedule: Q01DX001 (ip), vehicle: carboxymethylcellulose (CMC)) 0 of 6.

`CCCC(NCCCl)C(=O)NCCCl` (stereo not drawn): the T/C was 98 % of control (dose: 100.0 mg/kg/injection, schedule: Q04DX002 (ip), vehicle: saline); 90 % of control (dose: 200.0 mg/kg/injection, schedule: Q04DX002 (ip), vehicle: saline); 110 % of control (dose: 400.0 mg/kg/injection, schedule: Q04DX002 (ip), vehicle: saline).

For `CCOC(=O)NNC(=O)NP(=O)(NC(=O)NNC(=O)OCC)NC(=O)NNC(=O)OCC`, the T/C (dose: 100.0 mg/kg/injection, schedule: Q01DX001 (ip), vehicle: carboxymethylcellulose (CMC)) is 98 % of control; the T/C (dose: 200.0 mg/kg/injection, schedule: Q01DX001 (ip), vehicle: carboxymethylcellulose (CMC)) is 88 % of control; the T/C (dose: 400.0 mg/kg/injection, schedule: Q01DX001 (ip), vehicle: carboxymethylcellulose (CMC)) is 90 % of control.

For `CCc1c([N+](=O)[O-])c(CC)c([N+](=O)[O-])c(CC)c1[N+](=O)[O-]`, the T/C (dose: 100.0 mg/kg/injection, schedule: Q04DX002 (ip), vehicle: saline with Tween-80) is 103 % of control [survivor count not shown]; the T/C (dose: 200.0 mg/kg/injection, schedule: Q04DX002 (ip), vehicle: saline with Tween-80) was 111 % of control [survivor count not shown]; the T/C (dose: 400.0 mg/kg/injection, schedule: Q04DX002 (ip), vehicle: saline with Tween-80) is 114 % of control [survivor count not shown].

As to `O=C(O)c1c([N+](=O)[O-])cc([N+](=O)[O-])cc1[N+](=O)[O-]`, the T/C is 96 % of control [survivor count not shown] (dose: 75.0 mg/kg/injection, schedule: Q01DX001 (ip), vehicle: saline); 96 % of control [survivor count not shown] under setting [2]; 94 % of control [survivor count not shown] under setting [3].

As to `CCCC[As](=O)(O)O`, the T/C runs as follows: (dose: 6.3 mg/kg/injection, schedule: Q01DX001 (ip), vehicle: saline) 118 % of control; (dose: 12.5 mg/kg/injection, schedule: Q01DX001 (ip), vehicle: saline) 109 % of control; under setting [4], 113 % of control. For the same compound, the survivor count under setting [4] is on record as 2 of 4; the survivor count (dose: 50.0 mg/kg/injection, schedule: Q01DX001 (ip), vehicle: saline) is 0 of 4; the survivor count (dose: 100.0 mg/kg/injection, schedule: Q01DX001 (ip), vehicle: saline) was 0 of 4 and 1 of 4; the survivor count (dose: 200.0 mg/kg/injection, schedule: Q01DX001 (ip), vehicle: saline) was 1 of 4; the survivor count (dose: 400.0 mg/kg/injection, schedule: Q01DX001 (ip), vehicle: saline) is on record as 0 of 4.

Take `Nc1ncnc2sc(SCCCl)nc12`: the T/C reads like this: (dose: 100.0 mg/kg/injection, schedule: Q01DX009 (ip), vehicle: saline with Tween-80) 93 % of control; (dose: 200.0 mg/kg/injection, schedule: Q01DX009 (ip), vehicle: saline with Tween-80) 95 % of control. Also, the survivor count (dose: 400.0 mg/kg/injection, schedule: Q01DX009 (ip), vehicle: saline with Tween-80) is on record as 2 of 6.

For `NP(=O)(OCCCO)N(CCCl)CCCl` (stereo not drawn), the T/C is 91 % of control (dose: 125.0 mg/kg/injection, schedule: Q01DX001 (ip), vehicle: saline); 102 % of control under setting [2]; 96 % of control (dose: 250.0 mg/kg/injection, schedule: Q01DX001 (ip), vehicle: saline); 113 % of control under setting [3]; 103 % of control (dose: 500.0 mg/kg/injection, schedule: Q01DX001 (ip), vehicle: saline); 94 % of control (dose: 1000.0 mg/kg/injection, schedule: Q01DX001 (ip), vehicle: saline).
